Data published in PubChem BioAssay AID504467 (National Center for Advancing Translational Sciences (NCATS), 2011).
Out of some 330,000 compounds screened, about 7,700 (2.3%) were called active. Inconclusive means that the source gave no clear call. Such entries were picked first, then a sample of the others. Calls come from the whole dose curve; as a rule, active = well fitted inhibition curve with a large enough effect; inconclusive = small, poorly fitted or top-dose-only effect, or effect the other way; inactive = flat fitted curve, though single readings scatter. Where the call is inconclusive, the potency comes from a doubtful curve fit.

Assay: qHTS screen for small molecules that inhibit ELG1-dependent DNA repair in human embryonic kidney (HEK293T) cells expressing luciferase-tagged ELG1; note: nearly all actives have a fitted effect of over 55% in size
Settings: HEK293T ELG1-luciferase reporter, luminescence, 16 h, DNA damage induced by 5-fluorouridine; activity change, negative = inhibition: at 46.1 µM (top of the series)
How it was run: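 Quantitative HTS, concentration-response format. 2,000 cells/well co-treated with 5-fluorouridine and compound, 16 hr in 5% CO2 at 37 °C; ONE-Glo luminescence read after 30 min.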
% is set by controls: 0 for no effect and ±100 for the full control effect; potency is the fitted concentration of half-maximal effect.

| SMILES | Potency | activity change, negative = inhibition |
| --- | --- | --- |
| O=C(N/C(=C/c1cccc([N+](=O)[O-])c1)C(=O)N1CCCCC1)c1cccs1 | inconclusive: 11.6 µM [inhibitor, partial curve] | – |
| COc1ccc(OC)c(NC(=O)C2C3C=CC(C3)C2C(=O)NCc2cccnc2)c1 (stereo not given) | – | inactive: -7.59% |
| COCCC(=O)N1CCC(Oc2ccc(C(=O)NC3CCOC(C)(C)C3)cc2)CC1 (stereo not given) | inconclusive: 11.6 µM [activator, partial curve, poor fit] | – |
| Cc1cccc(-n2c(-c3csc(C(C)C)c3)n[nH]c2=S)c1 | – | inactive: 1.29% |
| CC(=O)c1csc(COc2ccc(Cl)cc2)n1 | inconclusive: 2.31 µM [activator, partial curve] | – |
| Cc1ccc(NC(=O)CSc2nnc(-c3cccnc3)n2-c2ccc(C)cc2)cc1 | inconclusive: 14.6 µM [inhibitor, partial curve, poor fit] | – |
| COc1cc(C(=O)NCC(=O)N/N=C/c2ccc(-c3cccc([N+](=O)[O-])c3)o2)cc(OC)c1OC | inconclusive: 20.6 µM [inhibitor, single point] | – |
| CCOc1cccc(CNc2ccc(O)cc2)c1OCc1ccc(Cl)cc1 | inconclusive: 6.51 µM [inhibitor, full curve] | – |
| c1cncc(-c2nc3ccccn3c2Nc2ccc3c(c2)OCCO3)c1 | – | inactive: 18.2% |
| N/C(=N\OC(=O)C12CC3CC(CC(C3)C1)C2)c1ccccn1 | inconclusive: 16.4 µM [activator, partial curve] | – |
| COCCCNc1oc(-c2ccccc2F)nc1C#N | inconclusive: 18.4 µM [activator, partial curve] | – |
| CCn1c(=O)n(CC)c2cc(N3CCCC3)c(NC(=O)c3ccc(OC)c(Br)c3)cc21 | active: 11.6 µM | – |
| CCN(CC)C(=O)C(=O)Nc1ccc(OC)c(Cl)c1 | inconclusive: 23.1 µM [activator, single point] | – |
| Cc1ccc(CNS(=O)(=O)c2cn(C)c(=O)n(C)c2=O)cc1 | – | inactive: 0% |
| O=C(CC1(O)C(=O)N(Cc2ccc3c(c2)OCO3)c2ccccc21)c1ccccc1 (stereo not given) | – | inactive: -9.25% |
| O=Cc1cnc(N2CCN(c3ccccc3)CC2)s1 | inconclusive: 11.6 µM [activator, partial curve] | – |
| CC(=O)Nc1ccc(S(=O)(=O)NCc2ccc(C(=O)NC(C)c3ccccc3)cc2)cc1 (stereo not given) | – | inactive: -4.67% |
| Cc1ccccc1NC(=O)CSc1nc2scc(C)c2c(=O)[nH]1 | inconclusive: 9.2 µM [activator, partial curve] | – |
| Cn1c(=O)oc2cc(S(=O)(=O)NCCC(=O)N3CCc4ccccc4C3)ccc21 | inconclusive: 25.9 µM [inhibitor, single point] | – |
| Cc1ccc(N2C(=O)c3ccccc3C2O)nc1 (stereo not given) | inconclusive: 0.291 µM [activator, full curve] | – |
| Cc1cc(C)cc(Oc2cc(NC(=O)c3cn(C)nc3C)cc([N+](=O)[O-])c2)c1 | – | inactive: 6.24% |
| COc1ccc(C(=O)Nc2ccc(NS(=O)(=O)c3ccccc3)cc2)cc1OC | active: 18.3 µM | – |
| Cc1ccc(OCC(=O)N2CCN(c3nnc(-c4ccc(C)cc4)c4ccccc34)CC2)cc1 | inconclusive: 25.9 µM [inhibitor, single point] | – |

Two compounds drawn at random from the list so far, as already listed:

| SMILES | Potency | activity change, negative = inhibition |
| --- | --- | --- |
| Cc1ccccc1NC(=O)CSc1nc2scc(C)c2c(=O)[nH]1 | inconclusive: 9.2 µM [activator, partial curve] | – |
| O=C(N/C(=C/c1cccc([N+](=O)[O-])c1)C(=O)N1CCCCC1)c1cccs1 | inconclusive: 11.6 µM [inhibitor, partial curve] | – |

(more compounds)

| SMILES | Potency | activity change, negative = inhibition |
| --- | --- | --- |
| CC(=O)NCCc1nc2cc(NC(=O)c3ccccc3)ccc2n1C | inconclusive: 20.6 µM [activator, partial curve] | – |
| COc1cc(/C=C/C(=O)OCC(=O)N2CCC(C)CC2)ccc1O | – | inactive: 19.5% |
| O=C1CSC(=S)N1/N=C/C=C/c1ccccc1 | – | inactive: 7.35% |
| CCc1ccc(C(=O)NNc2ccc(C)c(Cl)c2)cc1 | active: 18.3 µM | – |
| O=C(/C=C/c1ccc2c(c1)OCO2)Nc1cc(S(=O)(=O)N2CCOCC2)ccc1N1CCOCC1 | inconclusive: 18.4 µM [inhibitor, partial curve] | – |
| COc1ccc(CC(NC(C)=O)C(=O)NC2CCN(S(=O)(=O)c3ccc(NC(C)=O)cc3)CC2)c(OC)c1 (stereo not given) | – | inactive: 7.21% |
| CCN(C(=O)COC(=O)CCC(=O)c1cccs1)c1ccccc1 | inconclusive: 10.3 µM [activator, single point] | – |
| Cc1nnc2c(-c3ccccc3)nc3ccccc3n12 | inconclusive: 16.4 µM [activator, single point] | – |
| O=C(/C(=C/O)N=Nc1ccccc1)c1ccc(Cl)cc1 | inconclusive: 14.6 µM [inhibitor, partial curve] | – |
| Cc1ccc(Nc2nc3ccccc3o2)cc1F | inconclusive: 8.2 µM [activator, partial curve] | – |
| O=c1oc(-c2ccc(Br)cc2)nc2ccccc12 | inconclusive: 16.4 µM [activator, partial curve, poor fit] | – |
| COCCn1c(/C=C/c2ccccc2)nc2ccccc21 | inconclusive: 5.17 µM [activator, partial curve] | – |
| Cc1ccc2nc(SCC(=O)NCc3ccco3)c(C#N)cc2c1 | inconclusive: 9.2 µM [activator, partial curve] | – |
| CC1Cc2ccccc2N1C(=O)c1cc2sccc2n1Cc1ccc(F)cc1 (stereo not given) | – | inactive: -5.21% |
| COc1ccc(C)cc1NC(=O)NNC(=O)C1CCC(C(C)(C)C)CC1 (stereo not given) | inconclusive: 29.1 µM [inhibitor, single point] | – |
| Cc1cccc(-n2c(C)cc(/C=N\NC(=O)c3ccco3)c2C)c1 | inconclusive: 6.51 µM [activator, partial curve] | – |
| C=CCNC(=O)c1ccc2nc(-c3ccccc3)c(-c3ccccc3)nc2c1 | inconclusive: 15.8 µM [inhibitor, single point] | – |
| CCCC(=O)OC1CCS(=O)(=O)c2sccc21 (stereo not given) | – | inactive: 5.61% |
| CCCCn1c(-c2cccc(C)c2)nc2cc3[nH]c(=O)c(C(C)C)nc3cc21 | inconclusive: 25.9 µM [inhibitor, single point] | – |
| Cc1ccc(NC(=O)c2ccc([N+](=O)[O-])cc2Cl)nc1 | inconclusive: 7.31 µM [activator, partial curve] | – |
| Cc1cc(C)cc(C(=O)NCC(=O)N2CCC(C(N)=O)CC2)c1 | inconclusive: 20.6 µM [activator, single point] | – |
| CCOc1ccc(S(=O)(=O)NCCC(=O)OC(C)C(=O)N2CCc3ccccc32)cc1 (stereo not given) | inconclusive: 10.3 µM [inhibitor, single point] | – |
